Test results: the supplement of paper PMC9233669
This sample is rich in variants without activity.

Key:
biotinyl-Leu-oxazolone = test: self-aminoacylation, catalytic enhancement (BLO) (fold over background); higher = more active; k-Seq, kA / k0A0; sequences stand for … in GGGAAUGGAUCCACAUCUACGAAUUC…UUCACUGCAGACUUGACGAAGCUG
Method in brief: (§1)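 Mutagenized RNA pools with a 21-nt variable region (0.43 μM) reacted with each biotinyl-aminoacyl-oxazolone at 2–1250 μM. Reactions ran in 50 μL HEPES/NaCl/KCl/MgCl2/CaCl2 buffer with 5% acetonitrile, pH 6.9–7.0, for 90 minutes at room temperature. Streptavidin-captured RNA was quantified by triplicate qPCR and Illumina sequencing, and per-sequence fraction reacted was fit to a pseudo-first-order model with 1000 bootstraps. Catalytic enhancement is median kA divided by the uncatalyzed rate, the low-activity peak of a bimodal Gaussian fit.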

biotinyl-Val-oxazolone = test: self-aminoacylation, catalytic enhancement (BVO) (fold over background); higher = more active; k-Seq, kA / k0A0; sequences stand for … in GGGAAUGGAUCCACAUCUACGAAUUC…UUCACUGCAGACUUGACGAAGCUG
Method in brief: as §1

biotinyl-Ile-oxazolone = test: self-aminoacylation, catalytic enhancement (BIO) (fold over background); higher = more active; k-Seq, kA / k0A0; sequences stand for … in GGGAAUGGAUCCACAUCUACGAAUUC…UUCACUGCAGACUUGACGAAGCUG
Method in brief: as §1

biotinyl-Trp-oxazolone = test: self-aminoacylation, catalytic enhancement (BWO) (fold over background); higher = more active; k-Seq, kA / k0A0; sequences stand for … in GGGAAUGGAUCCACAUCUACGAAUUC…UUCACUGCAGACUUGACGAAGCUG
Method in brief: as §1

biotinyl-Met-oxazolone = test: self-aminoacylation, catalytic enhancement (BMO) (fold over background); higher = more active; k-Seq, kA / k0A0; sequences stand for … in GGGAAUGGAUCCACAUCUACGAAUUC…UUCACUGCAGACUUGACGAAGCUG
Method in brief: as §1

Sequence: AUUCACCUAGUUCAUCGGGUU [Fam2.2 aminoacylation ribozyme variant]
- self-aminoacylation (biotinyl-Leu-oxazolone): 1.28
- self-aminoacylation (biotinyl-Val-oxazolone): 1.61
- self-aminoacylation (biotinyl-Ile-oxazolone): 1.38
- self-aminoacylation (biotinyl-Trp-oxazolone): 1.66
- self-aminoacylation (biotinyl-Met-oxazolone): 1.46

Sequence: AUUCACCUGGGUCAUCGGGUC [Fam2.2 aminoacylation ribozyme variant]
- self-aminoacylation (biotinyl-Leu-oxazolone): 1.45
- self-aminoacylation (biotinyl-Val-oxazolone): 1.89
- self-aminoacylation (biotinyl-Ile-oxazolone): 1.68
- self-aminoacylation (biotinyl-Trp-oxazolone): 1.52
- self-aminoacylation (biotinyl-Met-oxazolone): 1.91

Sequence: AUUCACCUGGGUCAUCGUGUG [Fam2.2 aminoacylation ribozyme variant]
- self-aminoacylation (biotinyl-Leu-oxazolone): 1.17
- self-aminoacylation (biotinyl-Val-oxazolone): 1.26
- self-aminoacylation (biotinyl-Ile-oxazolone): 0.9
- self-aminoacylation (biotinyl-Trp-oxazolone): 1
- self-aminoacylation (biotinyl-Met-oxazolone): 1.03

Sequence: AUUCACGUAGGUCAUCGGGUC [Fam2.2 aminoacylation ribozyme variant]
- self-aminoacylation (biotinyl-Leu-oxazolone): 1.91
- self-aminoacylation (biotinyl-Val-oxazolone): 2.28
- self-aminoacylation (biotinyl-Ile-oxazolone): 1.7
- self-aminoacylation (biotinyl-Trp-oxazolone): 1.18
- self-aminoacylation (biotinyl-Met-oxazolone): 2.19

Sequence: AUUCACUGAGGUCAUCGGGUG [Fam2.2 aminoacylation ribozyme variant]
- self-aminoacylation (biotinyl-Leu-oxazolone): 9.09
- self-aminoacylation (biotinyl-Val-oxazolone): 4.37
- self-aminoacylation (biotinyl-Ile-oxazolone): 4.51
- self-aminoacylation (biotinyl-Trp-oxazolone): 5.64
- self-aminoacylation (biotinyl-Met-oxazolone): 7.22

Sequence: AUUCAGCUAGAUCAUCGGGUG [Fam2.2 aminoacylation ribozyme variant]
- self-aminoacylation (biotinyl-Leu-oxazolone): 4.61
- self-aminoacylation (biotinyl-Val-oxazolone): 2.85
- self-aminoacylation (biotinyl-Ile-oxazolone): 2.71
- self-aminoacylation (biotinyl-Trp-oxazolone): 3.9
- self-aminoacylation (biotinyl-Met-oxazolone): 4.04

Sequence: AUUCAGCUAGGUCAUCGUGUG [Fam2.2 aminoacylation ribozyme variant]
- self-aminoacylation (biotinyl-Leu-oxazolone): 1
- self-aminoacylation (biotinyl-Val-oxazolone): 0.842
- self-aminoacylation (biotinyl-Ile-oxazolone): 0.644
- self-aminoacylation (biotinyl-Trp-oxazolone): 0.917
- self-aminoacylation (biotinyl-Met-oxazolone): 0.779

Sequence: AUUCGACUAGGUCAUCGGGUG [Fam2.2 aminoacylation ribozyme variant]
- self-aminoacylation (biotinyl-Leu-oxazolone): 8.63
- self-aminoacylation (biotinyl-Val-oxazolone): 3.95
- self-aminoacylation (biotinyl-Ile-oxazolone): 4.46
- self-aminoacylation (biotinyl-Trp-oxazolone): 6.57
- self-aminoacylation (biotinyl-Met-oxazolone): 7.05

Sequence: AUUGCCCUCGUCAUCGAGUGA [Fam2.1 aminoacylation ribozyme variant]
- self-aminoacylation (biotinyl-Leu-oxazolone): 3.58
- self-aminoacylation (biotinyl-Val-oxazolone): 2.08
- self-aminoacylation (biotinyl-Ile-oxazolone): 2.21
- self-aminoacylation (biotinyl-Trp-oxazolone): 3.9
- self-aminoacylation (biotinyl-Met-oxazolone): 3.34

Sequence: AUUUACCUAGGUCAUCGGCUG [Fam2.2 aminoacylation ribozyme variant]
- self-aminoacylation (biotinyl-Leu-oxazolone): 1.97
- self-aminoacylation (biotinyl-Val-oxazolone): 1.71
- self-aminoacylation (biotinyl-Ile-oxazolone): 1.55
- self-aminoacylation (biotinyl-Trp-oxazolone): 1.17
- self-aminoacylation (biotinyl-Met-oxazolone): 1.7

Sequence: AUUUACCUAGGUCAUCGUGUG [Fam2.2 aminoacylation ribozyme variant]
- self-aminoacylation (biotinyl-Leu-oxazolone): 1.18
- self-aminoacylation (biotinyl-Val-oxazolone): 0.953
- self-aminoacylation (biotinyl-Ile-oxazolone): 0.874
- self-aminoacylation (biotinyl-Trp-oxazolone): 0.691
- self-aminoacylation (biotinyl-Met-oxazolone): 0.995

Sequence: AUUUCCAUGGUCAUCGAGUGA [Fam2.1 aminoacylation ribozyme variant]
- self-aminoacylation (biotinyl-Leu-oxazolone): 9.67
- self-aminoacylation (biotinyl-Val-oxazolone): 5.09
- self-aminoacylation (biotinyl-Ile-oxazolone): 5.22
- self-aminoacylation (biotinyl-Trp-oxazolone): 12
- self-aminoacylation (biotinyl-Met-oxazolone): 9.56

Sequence: AUUUCCCUGGUCAUUGAGUGA [Fam2.1 aminoacylation ribozyme variant]
- self-aminoacylation (biotinyl-Leu-oxazolone): 8.38
- self-aminoacylation (biotinyl-Val-oxazolone): 4.4
- self-aminoacylation (biotinyl-Ile-oxazolone): 4.47
- self-aminoacylation (biotinyl-Trp-oxazolone): 10
- self-aminoacylation (biotinyl-Met-oxazolone): 8.36

Sequence: CAACUUAAAACAAUCGGUCUG [Fam1A.1 aminoacylation ribozyme variant]
- self-aminoacylation (biotinyl-Leu-oxazolone): 1.11
- self-aminoacylation (biotinyl-Val-oxazolone): 1.14
- self-aminoacylation (biotinyl-Ile-oxazolone): 0.984
- self-aminoacylation (biotinyl-Trp-oxazolone): 0.948
- self-aminoacylation (biotinyl-Met-oxazolone): 1.09

Sequence: CCACAAUUCAAGUAAUCGGUC [Fam1B.1 aminoacylation ribozyme variant]
- self-aminoacylation (biotinyl-Leu-oxazolone): 0.898
- self-aminoacylation (biotinyl-Val-oxazolone): 0.91
- self-aminoacylation (biotinyl-Ile-oxazolone): 0.96
- self-aminoacylation (biotinyl-Trp-oxazolone): 1.36
- self-aminoacylation (biotinyl-Met-oxazolone): 0.906

Sequence: CCACACAUCAAUCAAUCGGUC [Fam1B.1 aminoacylation ribozyme variant]
- self-aminoacylation (biotinyl-Leu-oxazolone): 0.682
- self-aminoacylation (biotinyl-Val-oxazolone): 0.922
- self-aminoacylation (biotinyl-Ile-oxazolone): 0.842
- self-aminoacylation (biotinyl-Trp-oxazolone): 1.4
- self-aminoacylation (biotinyl-Met-oxazolone): 0.777

Sequence: CCACACUUCAAGCAACCGGGC [Fam1B.1 aminoacylation ribozyme variant]
- self-aminoacylation (biotinyl-Leu-oxazolone): 3.43
- self-aminoacylation (biotinyl-Val-oxazolone): 3.18
- self-aminoacylation (biotinyl-Ile-oxazolone): 2.77
- self-aminoacylation (biotinyl-Trp-oxazolone): 4.79
- self-aminoacylation (biotinyl-Met-oxazolone): 2

Sequence: CCACACUUCAAGCAAUCCCUC [Fam1B.1 aminoacylation ribozyme variant]
- self-aminoacylation (biotinyl-Leu-oxazolone): 0.729
- self-aminoacylation (biotinyl-Val-oxazolone): 1.15
- self-aminoacylation (biotinyl-Ile-oxazolone): 1.04
- self-aminoacylation (biotinyl-Trp-oxazolone): 1.35
- self-aminoacylation (biotinyl-Met-oxazolone): 0.846

Sequence: CCACACUUUAAGCAAUCGGGC [Fam1B.1 aminoacylation ribozyme variant]
- self-aminoacylation (biotinyl-Leu-oxazolone): 1.65
- self-aminoacylation (biotinyl-Val-oxazolone): 1.34
- self-aminoacylation (biotinyl-Ile-oxazolone): 1.61
- self-aminoacylation (biotinyl-Trp-oxazolone): 1.01
- self-aminoacylation (biotinyl-Met-oxazolone): 1.63

Sequence: CCACAUUUCAAGAAAUCGGUC [Fam1B.1 aminoacylation ribozyme variant]
- self-aminoacylation (biotinyl-Leu-oxazolone): 1.05
- self-aminoacylation (biotinyl-Val-oxazolone): 1.05
- self-aminoacylation (biotinyl-Ile-oxazolone): 1.12
- self-aminoacylation (biotinyl-Trp-oxazolone): 1.83
- self-aminoacylation (biotinyl-Met-oxazolone): 1.26

Sequence: CCACUGCAAACAAUCGGUCUG [Fam1A.1 aminoacylation ribozyme variant]
- self-aminoacylation (biotinyl-Leu-oxazolone): 1.06
- self-aminoacylation (biotinyl-Val-oxazolone): 1.39
- self-aminoacylation (biotinyl-Ile-oxazolone): 1.01
- self-aminoacylation (biotinyl-Trp-oxazolone): 1.27
- self-aminoacylation (biotinyl-Met-oxazolone): 1.16

Sequence: CCAGACUUCAAGCAACCGGUC [Fam1B.1 aminoacylation ribozyme variant]
- self-aminoacylation (biotinyl-Leu-oxazolone): 1.02
- self-aminoacylation (biotinyl-Val-oxazolone): 1.36
- self-aminoacylation (biotinyl-Ile-oxazolone): 1.47
- self-aminoacylation (biotinyl-Trp-oxazolone): 2
- self-aminoacylation (biotinyl-Met-oxazolone): 0.698

Sequence: CGACUGCAAACAAUCGGUCUG [Fam1A.1 aminoacylation ribozyme variant]
- self-aminoacylation (biotinyl-Leu-oxazolone): 1.7
- self-aminoacylation (biotinyl-Val-oxazolone): 1.39
- self-aminoacylation (biotinyl-Ile-oxazolone): 1.73
- self-aminoacylation (biotinyl-Trp-oxazolone): 1.81
- self-aminoacylation (biotinyl-Met-oxazolone): 1.26

Sequence: CGGCACUUCAAGCAAUCGGUC [Fam1B.1 aminoacylation ribozyme variant]
- self-aminoacylation (biotinyl-Leu-oxazolone): 1.87
- self-aminoacylation (biotinyl-Val-oxazolone): 1.61
- self-aminoacylation (biotinyl-Ile-oxazolone): 1.4
- self-aminoacylation (biotinyl-Trp-oxazolone): 20.1
- self-aminoacylation (biotinyl-Met-oxazolone): 1.5

Sequence: CUACUGCAAACACUCGGUCUG [Fam1A.1 aminoacylation ribozyme variant]
- self-aminoacylation (biotinyl-Leu-oxazolone): 1.49
- self-aminoacylation (biotinyl-Val-oxazolone): 1.43
- self-aminoacylation (biotinyl-Ile-oxazolone): 1.29
- self-aminoacylation (biotinyl-Trp-oxazolone): 1.55
- self-aminoacylation (biotinyl-Met-oxazolone): 1.64

Sequence: CUACUUCAAAAACUCGGUCUG [Fam1A.1 aminoacylation ribozyme variant]
- self-aminoacylation (biotinyl-Leu-oxazolone): 1.15
- self-aminoacylation (biotinyl-Val-oxazolone): 0.937
- self-aminoacylation (biotinyl-Ile-oxazolone): 1.02
- self-aminoacylation (biotinyl-Trp-oxazolone): 1.01
- self-aminoacylation (biotinyl-Met-oxazolone): 0.841

Sequence: CUACUUCAAACAAUCCGUCGG [Fam1A.1 aminoacylation ribozyme variant]
- self-aminoacylation (biotinyl-Leu-oxazolone): 0.901
- self-aminoacylation (biotinyl-Val-oxazolone): 0.98
- self-aminoacylation (biotinyl-Ile-oxazolone): 0.947
- self-aminoacylation (biotinyl-Trp-oxazolone): 0.636
- self-aminoacylation (biotinyl-Met-oxazolone): 0.867

Sequence: CUACUUCAAACUACCGGUCUG [Fam1A.1 aminoacylation ribozyme variant]
- self-aminoacylation (biotinyl-Leu-oxazolone): 0.868
- self-aminoacylation (biotinyl-Val-oxazolone): 0.832
- self-aminoacylation (biotinyl-Ile-oxazolone): 1.1
- self-aminoacylation (biotinyl-Trp-oxazolone): 0.846
- self-aminoacylation (biotinyl-Met-oxazolone): 0.809
